Data from US5198542A (Takeda Chemical Industries, Inc., priority 1989, dated 1993).

Assay: general procedure: Boc solid-phase peptide synthesis; p-methyl BHA resin (Applied Biosystems Inc.); HOBt/DCC
Conditions: whole synthesis, scale 0.50 g protected peptide resin

PACAP27 NH2
isolated mass (run 1): 129 mg | isolated mass (run 2): 17.2 mg
